Measured values: the supplement of paper PMC10849652
The list shows a part of the results.

By UniProt entry, the sequences of proteins in these tests, tags left out. Where a name states a change or a piece, a line headed by the entry shows the natural chain unless it says otherwise.
UniProt P52566: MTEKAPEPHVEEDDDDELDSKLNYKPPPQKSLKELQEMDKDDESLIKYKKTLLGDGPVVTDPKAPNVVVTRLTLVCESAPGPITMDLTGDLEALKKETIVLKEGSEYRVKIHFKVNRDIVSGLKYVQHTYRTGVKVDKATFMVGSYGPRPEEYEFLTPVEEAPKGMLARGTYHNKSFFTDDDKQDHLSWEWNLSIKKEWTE
UniProt Q92974: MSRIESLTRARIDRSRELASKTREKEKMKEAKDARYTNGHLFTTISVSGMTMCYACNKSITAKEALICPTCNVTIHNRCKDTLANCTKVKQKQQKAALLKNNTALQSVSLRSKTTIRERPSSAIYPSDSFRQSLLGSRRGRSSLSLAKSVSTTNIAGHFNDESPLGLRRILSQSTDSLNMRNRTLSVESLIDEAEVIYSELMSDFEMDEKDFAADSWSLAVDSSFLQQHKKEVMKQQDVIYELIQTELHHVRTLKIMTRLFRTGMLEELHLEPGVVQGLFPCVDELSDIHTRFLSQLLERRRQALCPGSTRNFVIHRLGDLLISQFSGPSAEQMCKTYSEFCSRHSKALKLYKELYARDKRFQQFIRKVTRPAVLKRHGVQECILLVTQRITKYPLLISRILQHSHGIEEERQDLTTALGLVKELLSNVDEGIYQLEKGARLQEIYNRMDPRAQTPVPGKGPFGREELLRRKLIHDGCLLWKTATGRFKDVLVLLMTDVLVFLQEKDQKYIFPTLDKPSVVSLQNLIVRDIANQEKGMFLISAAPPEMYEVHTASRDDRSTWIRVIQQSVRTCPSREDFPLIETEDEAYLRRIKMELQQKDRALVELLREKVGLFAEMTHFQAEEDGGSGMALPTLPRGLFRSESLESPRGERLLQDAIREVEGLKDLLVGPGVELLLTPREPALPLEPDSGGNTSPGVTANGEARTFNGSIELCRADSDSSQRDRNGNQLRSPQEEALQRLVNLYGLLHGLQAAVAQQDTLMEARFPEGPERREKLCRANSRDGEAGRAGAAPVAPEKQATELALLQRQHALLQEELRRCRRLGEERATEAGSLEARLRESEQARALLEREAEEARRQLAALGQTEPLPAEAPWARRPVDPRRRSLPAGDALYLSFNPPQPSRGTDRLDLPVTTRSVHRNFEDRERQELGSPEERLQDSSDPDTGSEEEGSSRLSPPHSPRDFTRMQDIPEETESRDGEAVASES
UniProt Q9Y6D5: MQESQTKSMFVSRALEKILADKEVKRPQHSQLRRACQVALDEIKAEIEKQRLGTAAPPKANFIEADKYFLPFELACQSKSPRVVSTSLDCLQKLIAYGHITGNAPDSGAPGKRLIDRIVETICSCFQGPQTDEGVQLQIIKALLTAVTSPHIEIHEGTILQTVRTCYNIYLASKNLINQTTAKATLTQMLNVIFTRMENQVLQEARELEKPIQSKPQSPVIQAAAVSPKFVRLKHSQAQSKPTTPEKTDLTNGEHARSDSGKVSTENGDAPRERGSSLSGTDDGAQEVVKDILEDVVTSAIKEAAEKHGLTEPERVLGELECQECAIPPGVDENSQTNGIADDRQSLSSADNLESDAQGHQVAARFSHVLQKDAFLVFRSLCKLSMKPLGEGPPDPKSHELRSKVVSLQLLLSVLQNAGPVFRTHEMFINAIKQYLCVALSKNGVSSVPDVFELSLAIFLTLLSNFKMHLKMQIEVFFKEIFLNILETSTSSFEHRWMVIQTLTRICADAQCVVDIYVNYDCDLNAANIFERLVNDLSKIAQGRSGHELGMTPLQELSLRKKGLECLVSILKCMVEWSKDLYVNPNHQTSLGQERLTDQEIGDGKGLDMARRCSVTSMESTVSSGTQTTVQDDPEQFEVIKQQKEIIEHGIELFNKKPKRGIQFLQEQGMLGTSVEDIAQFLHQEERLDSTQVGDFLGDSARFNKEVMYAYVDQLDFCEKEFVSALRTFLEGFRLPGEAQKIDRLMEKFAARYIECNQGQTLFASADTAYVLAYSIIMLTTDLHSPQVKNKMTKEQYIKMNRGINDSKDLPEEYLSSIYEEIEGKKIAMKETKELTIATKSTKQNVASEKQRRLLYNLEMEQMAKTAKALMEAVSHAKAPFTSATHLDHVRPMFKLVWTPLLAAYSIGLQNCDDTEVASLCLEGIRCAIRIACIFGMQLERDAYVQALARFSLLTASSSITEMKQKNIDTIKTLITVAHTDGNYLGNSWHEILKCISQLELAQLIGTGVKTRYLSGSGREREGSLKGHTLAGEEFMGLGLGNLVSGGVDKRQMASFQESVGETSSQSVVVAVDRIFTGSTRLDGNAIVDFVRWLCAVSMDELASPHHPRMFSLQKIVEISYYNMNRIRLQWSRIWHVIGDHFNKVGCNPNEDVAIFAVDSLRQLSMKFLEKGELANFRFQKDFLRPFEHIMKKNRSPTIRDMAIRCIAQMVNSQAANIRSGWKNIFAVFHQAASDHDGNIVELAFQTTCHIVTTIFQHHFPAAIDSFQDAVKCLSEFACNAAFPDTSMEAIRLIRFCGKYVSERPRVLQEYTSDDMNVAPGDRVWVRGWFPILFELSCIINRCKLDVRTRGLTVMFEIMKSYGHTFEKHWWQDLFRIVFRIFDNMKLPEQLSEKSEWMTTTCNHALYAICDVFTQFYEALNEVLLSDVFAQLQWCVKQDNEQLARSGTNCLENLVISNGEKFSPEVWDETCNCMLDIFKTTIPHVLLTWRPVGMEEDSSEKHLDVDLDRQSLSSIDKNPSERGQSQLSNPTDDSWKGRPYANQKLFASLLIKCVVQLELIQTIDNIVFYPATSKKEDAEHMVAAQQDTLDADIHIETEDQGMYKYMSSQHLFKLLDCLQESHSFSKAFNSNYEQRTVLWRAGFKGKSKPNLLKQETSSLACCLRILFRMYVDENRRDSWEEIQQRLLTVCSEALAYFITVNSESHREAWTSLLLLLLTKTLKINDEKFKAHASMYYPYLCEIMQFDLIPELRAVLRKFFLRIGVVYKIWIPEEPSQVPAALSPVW
UniProt P62330: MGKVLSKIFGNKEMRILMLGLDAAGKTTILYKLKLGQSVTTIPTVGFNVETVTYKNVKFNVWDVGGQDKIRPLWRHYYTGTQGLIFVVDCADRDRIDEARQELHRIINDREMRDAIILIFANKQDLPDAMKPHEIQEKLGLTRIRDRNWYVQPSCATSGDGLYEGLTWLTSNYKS
UniProt Q92619: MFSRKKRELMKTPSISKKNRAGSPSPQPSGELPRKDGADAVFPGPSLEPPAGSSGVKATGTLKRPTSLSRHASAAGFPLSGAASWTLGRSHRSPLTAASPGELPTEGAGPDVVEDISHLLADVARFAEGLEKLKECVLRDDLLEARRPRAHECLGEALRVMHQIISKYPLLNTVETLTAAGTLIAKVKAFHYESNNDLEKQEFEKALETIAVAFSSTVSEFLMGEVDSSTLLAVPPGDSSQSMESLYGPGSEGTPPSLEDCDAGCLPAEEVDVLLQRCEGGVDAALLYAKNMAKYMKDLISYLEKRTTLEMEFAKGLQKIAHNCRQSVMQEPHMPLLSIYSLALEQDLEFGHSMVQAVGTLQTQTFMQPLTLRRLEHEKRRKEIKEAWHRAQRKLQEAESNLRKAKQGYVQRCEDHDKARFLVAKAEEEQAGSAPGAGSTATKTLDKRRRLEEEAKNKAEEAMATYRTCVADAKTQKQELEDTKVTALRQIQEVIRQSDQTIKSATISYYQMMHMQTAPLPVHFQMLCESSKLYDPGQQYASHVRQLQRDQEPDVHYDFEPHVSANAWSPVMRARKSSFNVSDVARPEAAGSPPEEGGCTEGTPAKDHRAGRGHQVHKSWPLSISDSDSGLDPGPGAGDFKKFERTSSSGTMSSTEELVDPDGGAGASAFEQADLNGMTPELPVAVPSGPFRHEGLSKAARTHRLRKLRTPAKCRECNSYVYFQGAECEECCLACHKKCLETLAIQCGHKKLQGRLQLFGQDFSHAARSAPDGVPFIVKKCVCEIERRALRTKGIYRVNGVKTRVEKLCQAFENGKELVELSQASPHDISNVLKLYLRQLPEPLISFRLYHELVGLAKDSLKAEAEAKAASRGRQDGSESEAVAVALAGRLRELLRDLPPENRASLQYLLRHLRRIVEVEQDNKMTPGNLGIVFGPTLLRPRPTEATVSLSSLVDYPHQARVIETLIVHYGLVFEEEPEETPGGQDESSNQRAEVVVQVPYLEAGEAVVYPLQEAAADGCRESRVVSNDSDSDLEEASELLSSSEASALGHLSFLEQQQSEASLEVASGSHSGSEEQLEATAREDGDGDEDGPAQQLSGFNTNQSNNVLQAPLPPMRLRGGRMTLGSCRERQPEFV
UniProt O14497, whole entry, looked up: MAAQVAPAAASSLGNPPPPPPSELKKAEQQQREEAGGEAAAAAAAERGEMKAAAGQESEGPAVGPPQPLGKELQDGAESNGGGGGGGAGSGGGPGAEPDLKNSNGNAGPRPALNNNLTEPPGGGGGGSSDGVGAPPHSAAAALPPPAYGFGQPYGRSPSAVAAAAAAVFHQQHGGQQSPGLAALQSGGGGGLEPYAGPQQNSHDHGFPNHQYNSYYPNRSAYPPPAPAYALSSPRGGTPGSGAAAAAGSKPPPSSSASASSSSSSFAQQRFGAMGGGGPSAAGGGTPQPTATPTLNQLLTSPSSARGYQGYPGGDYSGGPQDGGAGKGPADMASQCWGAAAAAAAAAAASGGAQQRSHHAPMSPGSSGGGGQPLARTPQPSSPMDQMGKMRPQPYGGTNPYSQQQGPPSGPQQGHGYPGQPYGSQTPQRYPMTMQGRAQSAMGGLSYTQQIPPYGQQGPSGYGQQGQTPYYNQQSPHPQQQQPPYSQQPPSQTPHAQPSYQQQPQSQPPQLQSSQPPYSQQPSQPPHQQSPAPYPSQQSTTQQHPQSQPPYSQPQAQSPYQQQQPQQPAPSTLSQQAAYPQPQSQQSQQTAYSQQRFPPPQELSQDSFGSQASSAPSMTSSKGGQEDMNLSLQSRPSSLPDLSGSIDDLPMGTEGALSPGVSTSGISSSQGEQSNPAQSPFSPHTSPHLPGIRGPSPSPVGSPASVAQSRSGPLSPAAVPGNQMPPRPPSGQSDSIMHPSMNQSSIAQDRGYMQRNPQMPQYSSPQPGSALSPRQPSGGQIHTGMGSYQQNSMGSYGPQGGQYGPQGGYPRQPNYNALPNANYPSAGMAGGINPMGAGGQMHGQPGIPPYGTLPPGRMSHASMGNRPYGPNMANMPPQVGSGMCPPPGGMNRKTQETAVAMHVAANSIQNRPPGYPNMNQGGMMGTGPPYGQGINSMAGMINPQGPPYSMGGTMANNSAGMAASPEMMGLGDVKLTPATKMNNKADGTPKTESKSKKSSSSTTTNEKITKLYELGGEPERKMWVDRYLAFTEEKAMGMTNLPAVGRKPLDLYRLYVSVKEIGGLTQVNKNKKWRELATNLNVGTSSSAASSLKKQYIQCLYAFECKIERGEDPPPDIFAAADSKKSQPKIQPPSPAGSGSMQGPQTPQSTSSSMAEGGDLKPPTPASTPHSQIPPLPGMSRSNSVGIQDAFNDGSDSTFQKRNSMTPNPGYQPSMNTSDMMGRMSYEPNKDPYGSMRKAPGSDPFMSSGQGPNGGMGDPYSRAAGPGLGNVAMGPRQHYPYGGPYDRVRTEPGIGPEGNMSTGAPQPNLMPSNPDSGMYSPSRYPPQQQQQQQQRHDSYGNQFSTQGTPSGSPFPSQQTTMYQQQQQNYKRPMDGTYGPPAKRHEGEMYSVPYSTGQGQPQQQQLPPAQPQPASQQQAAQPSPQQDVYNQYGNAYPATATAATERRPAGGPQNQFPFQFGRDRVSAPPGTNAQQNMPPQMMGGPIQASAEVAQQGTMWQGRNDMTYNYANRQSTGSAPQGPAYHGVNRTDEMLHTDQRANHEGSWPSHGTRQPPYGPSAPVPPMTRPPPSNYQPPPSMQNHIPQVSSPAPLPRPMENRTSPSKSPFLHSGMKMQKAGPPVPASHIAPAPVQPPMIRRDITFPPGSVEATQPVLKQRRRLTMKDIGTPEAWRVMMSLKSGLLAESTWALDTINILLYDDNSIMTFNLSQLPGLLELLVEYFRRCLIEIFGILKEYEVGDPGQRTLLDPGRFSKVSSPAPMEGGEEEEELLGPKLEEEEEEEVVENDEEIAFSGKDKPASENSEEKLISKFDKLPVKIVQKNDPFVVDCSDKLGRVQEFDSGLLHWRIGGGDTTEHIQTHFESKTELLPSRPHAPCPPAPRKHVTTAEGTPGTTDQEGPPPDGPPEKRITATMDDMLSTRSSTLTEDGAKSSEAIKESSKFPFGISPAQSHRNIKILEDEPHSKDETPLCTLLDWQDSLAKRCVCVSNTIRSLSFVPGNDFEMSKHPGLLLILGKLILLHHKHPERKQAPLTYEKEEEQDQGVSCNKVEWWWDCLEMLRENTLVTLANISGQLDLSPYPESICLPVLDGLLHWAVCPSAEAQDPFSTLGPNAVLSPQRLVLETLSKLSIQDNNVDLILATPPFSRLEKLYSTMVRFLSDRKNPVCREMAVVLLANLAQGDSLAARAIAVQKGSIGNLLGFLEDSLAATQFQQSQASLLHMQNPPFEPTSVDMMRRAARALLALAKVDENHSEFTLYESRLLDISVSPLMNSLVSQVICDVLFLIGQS

How the values were obtained:
Assay in all cases: log2 fold change, soluble protein after heating vs DMSO (PISA); higher = thermal stabilisation; K562 cells, 10 uM, 30 min; active = over 0.2 and 3.5 SD of the protein, either way, in both replicates (recomputed)
[1] = compound: Cc1ccc(NC(=O)c2ccc(CN3CC[C@H](N(C)C)C3)c(C(F)(F)F)c2)cc1Nc1nccc(-c2cncnc2)n1 [bafetinib]
In short: (§1)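 For each measurement, 10 μM compound was applied for 30 min to K562 cells at 2×10^6 cells/mL. Aliquots were heated for 3 min across 48°C-58°C, pooled, and extracted in PBS with 0.5% NP-40 at 4°C; the supernatant after 21,000xg for 90 min was soluble protein. This was quantified by TMTpro 16plex LC-MS/MS with channel sums equalised, and thermal stability was reported relative to control samples from duplicates, on a log2 fold-change scale.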

[2] = compound: Cc1cccc(CC(=O)N2CCc3c2ccc(-c2cn(C)c4ncnc(N)c24)c3F)n1
In short: as §1

[3] = compound: Cc1cn(-c2cc(NC(=O)c3ccc(C)c(Nc4nccc(-c5cccnc5)n4)c3)cc(C(F)(F)F)c2)cn1 [nilotinib]
In short: as §1

[4] = compound: Cc1nc(Nc2n[nH]c3c2CN(C(=O)N[C@H](CN(C)C)c2ccccc2)C3(C)C)c2sccc2n1
In short: as §1

[5] = compound: Cc1nc(Nc2ncc(C(=O)Nc3c(C)cccc3Cl)s2)cc(N2CCN(CCO)CC2)n1 [dasatinib]
In short: as §1

[6] = compound: Cc1ncc(-c2ccnc(Nc3ccc(S(C)(=O)=O)cc3)n2)n1C(C)C
In short: as §1

[7] = compound: Cn1cc(-c2ccc3c(c2)CCN3C(=O)Cc2cccc(C(F)(F)F)c2)c2c(N)ncnc21
In short: as §1

[8] = compound: Cn1cc(-c2ccc3nnc(C(F)(F)c4ccc5ncccc5c4)n3n2)cn1
In short: as §1

[9] = compound: Cn1cncc1[C@@](N)(c1ccc(Cl)cc1)c1ccc2c(c1)c(-c1cccc(Cl)c1)cc(=O)n2C [tipifarnib]
In short: as §1

[10] = compound: FC(F)(F)c1ccc(/C=C/c2nc(COc3ccc(CCCCn4ccnn4)cc3)co2)cc1 [mubritinib]
In short: as §1

| Target | log2 fold change [1] | log2 fold change [2] | log2 fold change [3] | log2 fold change [4] | log2 fold change [5] | log2 fold change [6] | log2 fold change [7] | log2 fold change [8] | log2 fold change [9] | log2 fold change [10] |
| --- | --- | --- | --- | --- | --- | --- | --- | --- | --- | --- |
| ARAF (UniProt P10398) | inactive: -0.015 | inactive: 0.01 | inactive: -0.021 | active: -0.236 | inactive: -0.031 | inactive: 0.009 | inactive: 0.007 | inactive: -0.003 | inactive: 0.144 | inactive: -0.092 |
| ARHGDIB (UniProt P52566) | inactive: -0.035 | inactive: -0.026 | inactive: -0.023 | inactive: -0.032 | inactive: -0.001 | inactive: -0.002 | inactive: 0.043 | inactive: 0.009 | inactive: 0 | inactive: 0.078 |
| ANKRD29 (UniProt Q8N6D5) | inactive: 0.063 | inactive: -0.027 | inactive: -0.09 | inactive: -0.057 | inactive: -0.002 | inactive: 0.053 | inactive: 0.22 | inactive: 0.133 | inactive: -0.223 | inactive: 0.083 |
| ARHGEF2 (UniProt Q92974) | inactive: 0.175 | inactive: 0.026 | inactive: -0.194 | inactive: -0.347 | inactive: 0.041 | inactive: 0.093 | inactive: -0.281 | inactive: -0.176 | inactive: 0.025 | inactive: -0.245 |
| ARFGEF2 (UniProt Q9Y6D5) | inactive: -0.023 | inactive: 0.038 | inactive: 0.01 | inactive: -0.08 | inactive: -0.026 | inactive: 0.032 | inactive: 0.007 | inactive: -0.009 | inactive: -0.016 | inactive: -0.041 |
| APMAP (UniProt Q9HDC9) | inactive: -0.043 | inactive: -0.052 | inactive: -0.038 | inactive: 0.015 | inactive: 0.043 | inactive: -0.006 | inactive: 0.036 | inactive: 0.007 | inactive: 0.006 | inactive: 0.042 |
| ARF3 (UniProt P61204) | inactive: 0.004 | inactive: -0.017 | inactive: -0.011 | inactive: 0.016 | inactive: 0.032 | inactive: 0.005 | inactive: 0.02 | inactive: 0.012 | inactive: 0.001 | inactive: 0.036 |
| ARF6 (UniProt P62330) | inactive: 0.041 | inactive: 0.046 | inactive: -0.043 | inactive: 0.027 | inactive: 0.035 | inactive: 0.027 | inactive: -0.011 | inactive: -0.032 | inactive: -0.03 | inactive: 0.014 |
| ARHGEF1 isoform 3 (UniProt Q92888) | inactive: 0.098 | inactive: 0.079 | inactive: -0.037 | inactive: -0.013 | inactive: -0.065 | inactive: 0.002 | inactive: -0.1 | inactive: -0.113 | inactive: -0.085 | inactive: 0.02 |
| ARHGAP45 isoform 2 (UniProt Q92619) | inactive: -0.052 | inactive: -0.036 | inactive: 0.001 | inactive: -0.076 | inactive: -0.063 | inactive: 0.063 | inactive: 0.015 | inactive: -0.02 | inactive: 0.043 | inactive: 0.042 |
| APOBEC3C (UniProt Q9NRW3) | inactive: 0.134 | inactive: -0.111 | inactive: 0.019 | inactive: -0.001 | inactive: 0.1 | inactive: 0.006 | inactive: -0.156 | inactive: -0.153 | inactive: 0.239 | inactive: -0.036 |
| ARGLU1 (UniProt Q9NWB6) | inactive: 0.165 | inactive: -0.058 | inactive: 0.184 | active: -1.13 | inactive: 0.146 | inactive: -0.027 | inactive: -0.046 | inactive: -0.031 | inactive: 0.043 | inactive: -0.057 |
| ARID1A (UniProt O14497) | inactive: 0.091 | inactive: 0.014 | inactive: -0.145 | inactive: 0.054 | inactive: -0.063 | inactive: 0.026 | inactive: 0.072 | inactive: -0.063 | inactive: 0.073 | inactive: 0.067 |
| ANAPC16 (UniProt Q96DE5) | inactive: 0.014 | inactive: 0.018 | inactive: 0.027 | inactive: -0.019 | inactive: 0.026 | inactive: -0.056 | inactive: -0.04 | inactive: 0.155 | inactive: 0.038 | inactive: 0.001 |
| AP3S1 (UniProt Q92572) | inactive: -0.018 | inactive: 0.016 | inactive: -0.034 | inactive: -0.017 | inactive: -0.043 | inactive: -0.015 | inactive: 0.032 | inactive: -0.024 | inactive: -0.074 | inactive: 0.055 |

A portion taken from the entries so far, for reference:

| Target | log2 fold change [1] | log2 fold change [2] | log2 fold change [3] | log2 fold change [4] | log2 fold change [5] | log2 fold change [6] | log2 fold change [7] | log2 fold change [8] | log2 fold change [9] | log2 fold change [10] |
| --- | --- | --- | --- | --- | --- | --- | --- | --- | --- | --- |
| ARID1A (UniProt O14497) | inactive: 0.091 | inactive: 0.014 | inactive: -0.145 | inactive: 0.054 | inactive: -0.063 | inactive: 0.026 | inactive: 0.072 | inactive: -0.063 | inactive: 0.073 | inactive: 0.067 |
| ANAPC16 (UniProt Q96DE5) | inactive: 0.014 | inactive: 0.018 | inactive: 0.027 | inactive: -0.019 | inactive: 0.026 | inactive: -0.056 | inactive: -0.04 | inactive: 0.155 | inactive: 0.038 | inactive: 0.001 |
